From the supplement of paper PMC12542422 come the findings set out here.

Structures can show the parent of a compound that is named as a salt. ± gives the standard deviation of the averaged measurements. Some of the results follow. These are raw signals, not scaled to a control.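 Across three biological replicates, HeLa cells were imaged for ribosome assembly using ENP1 staining (export block present or absent) or inducible tagged ribosomal protein reporters. Machine learning classified each cell's signal localization relative to DMSO controls. Hits exceeded the DMSO false-positive mean by five standard deviations and were then visually confirmed.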

The assay has as its system HeLa RPS2-YFP reporter. Kind of assay: fraction of reporter-positive cells with nuclear (nucleolar or nucleolar/nucleoplasmic) RPS2-YFP (MainHitrate); higher = more cells with nucleolar/nuclear readout signal (for ENP1 -LMB: less RNAPI inhibition; for +LMB ENP1 and RP reporters: stronger nuclear/nucleolar retention, i.e. ribosome biogenesis defect). To be noted: concentration: 1 µM; treatment time: 6 h.
Take `C#CCN[C@@H]1CCc2ccccc21` [Rasagiline mesylate]: the “fraction of reporter-positive cells with nuclear” value (shortened to “fraction”) stood at 0.106 ± 0.083.
The figure for `CN1CCC(=C2c3ccccc3CCc3sccc32)CC1` [Pizotifen malate] is 0.136 ± 0.083; for `Cc1cc2c(s1)Nc1ccccc1N=C2N1CCN(C)CC1` [Olanzapine (Zyprexa)] it is 0.112 ± 0.091; for `NC(=O)c1ncn([C@@H]2O[C@H](CO)[C@@H](O)[C@H]2O)c1N` [Acadesine] it is 0.094 ± 0.08.
The figure for `COC(=O)/C=C/C(=O)OC` [Dimethyl Fumarate] is 0.0977 ± 0.061; for `COc1ccc2cc1Oc1ccc(cc1)C[C@H]1c3c(cc4c(c3Oc3cc5c(cc3OC)CCN(C)[C@@H]5C2)OCO4)CCN1C` [Cepharanthine] it is 0.155 ± 0.12; for `Cc1ccc(Nc2nccc(N(C)c3ccc4c(C)n(C)nc4c3)n2)cc1S(N)(=O)=O` [Pazopanib] it is 0.154 ± 0.12.
In the case of `Cc1nnc(C(C)C)n1C1C[C@H]2CC[C@@H](C1)N2CC[C@H](NC(=O)C1CCC(F)(F)CC1)c1ccccc1` (stereo in doubt) [Maraviroc], the “fraction” value worked out at 0.129 ± 0.038.
The figure for `O=C([O-])C(O)[C@H](O)[C@@H](O)[C@H](O)[C@H](O)CO.O=C([O-])C(O)[C@H](O)[C@@H](O)[C@H](O)[C@H](O)CO.[Ca+2]` (some centres undefined) [Calcium Gluceptate] is 0.154 ± 0.16; for `CC(C)OC(=O)C(C(=O)OC(C)C)=C1SC=CS1` [Malotilate] it is 0.0907 ± 0.057.
The same measure for `CN(Cc1cnc2nc(N)nc(N)c2n1)c1ccc(C(=O)N[C@@H](CCC(=O)O)C(=O)O)cc1` [Abitrexate (Methotrexate)]: 0.0974 ± 0.056; for `CC(=O)OCC(=O)[C@@]1(O)[C@H](C)C[C@H]2[C@@H]3CCC4=CC(=O)C=C[C@]4(C)[C@@]3(F)[C@@H](O)C[C@@]21C` [Dexamethasone acetate]: 0.126 ± 0.11.
The same measure for `COc1cc2c(cc1OC)CC(=O)N(CCCN(C)C[C@H]1Cc3cc(OC)c(OC)cc31)CC2` [Ivabradine HCl (Procoralan)]: 0.0909 ± 0.061.
Consider `NC(CO)(CO)CO` [Trometamol], for which the “fraction” value turned out to be 0.114 ± 0.082.
The figure for `COc1ccc(CNc2nc(N3CCC[C@H]3CO)ncc2C(=O)NCc2ncccn2)cc1Cl` [Avanafil] is 0.153 ± 0.13; for `C[C@@H]1C(=O)O[C@H]2C[C@@]34[C@H]5C[C@@H](C(C)(C)C)[C@]36[C@@H](OC(=O)[C@@H]6O)O[C@@]4(C(=O)O5)[C@]21O` [Ginkgolide A] it is 0.104 ± 0.074.
Consider `CCOc1nc2cccc(C(=O)O)c2n1Cc1ccc(-c2ccccc2-c2noc(=O)[nH]2)cc1` [Azilsartan (TAK-536)], for which the “fraction” value is 0.121 ± 0.11.
The same measure for `O=C(c1ccc(OCCN2CCCCC2)cc1)c1c(-c2ccc(O)cc2)sc2cc(O)ccc12` [Evista (Raloxifene Hydrochloride)]: 0.116 ± 0.095; for `CN(CCOc1ccc(CC2SC(=O)NC2=O)cc1)c1ccccn1` (centres undefined) [Rosiglitazone (Avandia)]: 0.0513 ± 0.033; for `CCC(CC)[C@H](NC(C)=O)[C@@H]1[C@H](O)[C@@H](C(=O)O)C[C@H]1NC(=N)N` [Peramivir Trihydrate]: 0.113 ± 0.079.
For `COc1c(N2CCNC(C)C2)c(F)cc2c(=O)c(C(=O)O)cn(C3CC3)c12` (centres undefined) [Gatifloxacin], the “fraction” value was determined as 0.109 ± 0.068.
The figure for `CCCCc1oc2ccc(NS(C)(=O)=O)cc2c1C(=O)c1ccc(OCCCN(CCCC)CCCC)cc1` [Dronedarone HCl (Multaq)] is 0.132 ± 0.066.
The figure for `Nc1cc(N2CCCCC2)nc(N)[n+]1[O-]` [Minoxidil] is 0.106 ± 0.083; for `Cc1nnc(C(=O)NC(C)(C)c2nc(C(=O)NCc3ccc(F)cc3)c(O)c(=O)n2C)o1` [Raltegravir (MK-0518)] it is 0.0977 ± 0.07.
